Experimental data taken from PubChem BioAssay AID504847 (National Center for Advancing Translational Sciences (NCATS), 2011).
Where “and” joins values, the source holds several entries; their conditions need not be identical. Equal entries are not always repeated. Among all 400,000 compounds or so, about 3,700 (0.93%) were called active. This list was built around the results that the source calls inconclusive (neither active nor inactive); the mix of calls is not that of the screen. Calls follow the shape of the dose curve; as a rule, active = well fitted inhibition curve with a large enough effect; inconclusive = small, poorly fitted or top-dose-only effect, or another doubt; inactive = no such curve, though single readings can be large or run the other way. Potencies of inconclusive entries are doubtful fits and often do not repeat. Some compounds were tested as several samples or in several runs, with calls that do not always agree.

Chains of the proteins cited; added tags and fusions are not shown. Lines headed by an entry give the natural chain unless they say otherwise; changes in a name come on top.
UniProt P11473: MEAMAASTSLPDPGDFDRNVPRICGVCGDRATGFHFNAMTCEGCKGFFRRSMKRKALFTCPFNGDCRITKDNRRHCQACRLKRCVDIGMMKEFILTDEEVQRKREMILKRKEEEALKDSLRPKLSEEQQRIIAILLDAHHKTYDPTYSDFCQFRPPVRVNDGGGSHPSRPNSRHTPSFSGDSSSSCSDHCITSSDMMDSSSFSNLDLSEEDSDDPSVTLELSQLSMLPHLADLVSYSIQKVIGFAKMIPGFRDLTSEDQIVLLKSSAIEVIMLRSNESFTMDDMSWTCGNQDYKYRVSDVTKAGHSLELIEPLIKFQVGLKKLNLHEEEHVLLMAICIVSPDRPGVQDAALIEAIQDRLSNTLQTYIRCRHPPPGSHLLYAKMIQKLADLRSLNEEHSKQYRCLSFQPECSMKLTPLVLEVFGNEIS

target: Vitamin D3 receptor (Homo sapiens) (UniProt P11473); experiment: Inhibitors of the vitamin D receptor (VDR): qHTS; details: VDR-SRC2-3 peptide fluorescence polarization, 2 h; max response, negative = inhibition: hits give low values
In short: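 Compounds are added to VDR with labelled SRC2-3 coactivator peptide and held 2 h at room temperature. Inhibition of the VDR–peptide interaction is then read as a change in fluorescence polarization.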
% is scaled to controls: 0 for no effect and ±100 for the full control effect; potency is read from the fitted curve at half-maximal effect.

Potency, active:
Fc1ccccc1SCc1nnc(-c2ccccc2Br)o1 44.7 µM, O=C(N/N=C/C=C\c1ccco1)c1ccccn1 79.4 µM, O=S(=O)(c1ccccc1)N1CCC[C@@]2(CCN(c3ccccc3)C2)C1 31.6 µM, CC/C=C\C/C=C\C/C=C\C/C=C\C/C=C\CCCC(=O)O 39.8 µM, Cc1cccc(C=CC(=O)c2ccc(Cl)cc2)c1 20 µM, COc1ccccc1-c1nccc(Nc2ccc(F)cc2)n1 50.1 µM

Potency, inconclusive:
CCCNC(=O)/C(=C/c1cn(S(=O)(=O)N(C)C)c2ccccc12)NC(=O)c1ccc(OC)cc1 79.4 µM [inhibitor, partial curve, poor fit], c1cncc(-c2nccc(NCc3cccs3)n2)c1 56.2 µM [inhibitor, partial curve], O=C(CC1C(=O)NCCN1Cc1ccccc1C(F)(F)F)NC1CCC1 (stereo not given) 89.1 µM [inhibitor, single point], CCOC(=O)c1c(-c2ccccc2)csc1NC(=O)c1cc(-c2cccc(Cl)c2)on1 89.1 µM [inhibitor, partial curve, poor fit], COc1ccc(OC)c(/C=C2\SC(=S)N(NS(=O)(=O)c3ccc(C)cc3)C2=O)c1 100 µM [inhibitor, single point], Cc1nn(CCc2nn[nH]n2)c2nc(-c3ccc(C4CCCCC4)cc3)cc(C(F)(F)F)c12 89.1 µM [inhibitor, single point], O=C(NNC(=S)NC(=O)c1ccc(Br)cc1)c1ccc([N+](=O)[O-])cc1 2.24 µM [inhibitor, partial curve, poor fit], CCOC(=O)COc1cccc2c(=O)n(CC(=O)NCCc3ccccc3)ccc12 100 µM [inhibitor, partial curve, poor fit], COC(=O)N1CCC2(CCCN(c3ccc(-c4ccccc4)cc3)C2)CC1 44.7 µM [inhibitor, partial curve], COc1ccccc1CNN 89.1 µM [inhibitor, partial curve, poor fit], CN(C)c1ncnc2ccc(-c3ccoc3)cc12 50.1 µM [inhibitor, partial curve, poor fit], Cc1cc(-c2ccccc2)nc2cc(C(=O)Nc3cc(C(F)(F)F)ccc3Cl)nn12 89.1 µM [inhibitor, partial curve, poor fit], CCC(=O)Nc1ccc(OCc2nc3ccccc3s2)cc1 89.1 µM [inhibitor, single point], CC1=C(C(N)=O)C(c2sccc2C)n2nnnc2N1 (stereo not given) 25.1 µM [inhibitor, partial curve, poor fit], CCOc1ccc(C(c2c(C)[nH]n(-c3ccccc3)c2=O)c2c(C)[nH]n(-c3ccccc3)c2=O)cc1OC 79.4 µM [inhibitor, partial curve, poor fit], C1COCCNCCOCCOCCOCCN1 100 µM [inhibitor, single point], C=CCNc1nc(Cl)nc(Nc2cc(Cl)ccc2OC)n1 79.4 µM [inhibitor, single point], N#Cc1ccc(C(=O)Nc2ccc3ccccc3c2)cc1 89.1 µM [inhibitor, single point], COc1cc(NC(=O)/C=C/c2ccccc2)c(C(=O)O)cc1OC 14.1 µM [inhibitor, partial curve, poor fit], CC(=O)N1N=C(c2cccc(NS(C)(=O)=O)c2)CC1c1cccs1 (stereo not given) 79.4 µM [inhibitor, partial curve, poor fit], NC(=S)N/N=C/c1ccc(-c2cc(Cl)cc(Cl)c2)o1 44.7 µM [inhibitor, partial curve, poor fit], O=C(CC1CC2CCC1C2)N1CCN(S(=O)(=O)c2ccccc2C(F)(F)F)CC1 (stereo not given) 22.4 µM [inhibitor, partial curve, poor fit], COc1ccc(NC(=O)C(CC(=O)O)C(C)c2ccccc2)cc1 (stereo not given) 39.8 µM [inhibitor, single point], COc1ccc(Cn2nnc3c(=O)[nH]c(C(=O)NCCc4ccc(F)cc4)nc32)cc1OC 89.1 µM [inhibitor, single point], O=C(c1cc(F)ccc1F)C1CCCN(C(=O)c2ccc(F)cc2Cl)C1 (stereo not given) 89.1 µM [inhibitor, partial curve, poor fit], Cc1[nH]c2ccccc2c1SCC(=O)N1CCCCCC1 100 µM [inhibitor, single point], O=C(N/N=C/c1ccccc1C(=O)O)c1cccc(S(=O)(=O)Nc2cc(Cl)ccc2Cl)c1 2.82 µM [inhibitor, partial curve, poor fit], Cc1cc(C)c([N+](=O)[O-])cc1-c1ccc(/C=N/c2c(-c3ccco3)nc3ccccn23)o1 79.4 µM [inhibitor, single point], C(=C\c1sc(Nc2ccccc2)n[n+]1-c1ccccc1)/c1ccccc1 89.1 µM [inhibitor, single point], Cc1cccc(COC[C@H](Cc2ccccc2)N2CCN(C(=O)c3cccc(Cl)c3)CCC2=O)c1 39.8 µM [inhibitor, partial curve], CC1(C)C(OC(=O)CCC(=O)O)CC[C@]2(C)C1CC[C@@]1(C)C2C(=O)C=C2[C@@H]3C[C@@](C)(C(=O)O)CC[C@]3(C)CCC21C (stereo not given in full) 79.4 µM [inhibitor, single point], O=S1(=O)CC(O)C(N=Nc2c(O)n(Cc3ccccc3)c3ccccc23)C1 (stereo not given) 25.1 µM [inhibitor, single point], CCCCCCCCC1=NCCc2c1[nH]c1ccccc21 35.5 µM [inhibitor, partial curve, poor fit], Cn1cccc1C(=O)N1CCC[C@@]2(CCN(Cc3ccccc3)C2)C1 89.1 µM [inhibitor, single point], CCN(/C(N)=N/c1nc(C)cc(C)n1)c1ccccc1 14.1 µM [inhibitor, partial curve, poor fit], O=C(CC(Nc1cccc(Cl)c1Cl)C(=O)O)c1ccccc1 (stereo not given) 56.2 µM [inhibitor, partial curve, poor fit], CC1CCc2sc(C(=O)NCC(c3ccco3)N3CCCCC3)cc2C1 (stereo not given) 39.8 µM [inhibitor, single point], CN1CCN(NC(=O)c2ccc(Br)s2)CC1 22.4 µM [inhibitor, partial curve, poor fit], O=C(Nc1ccc(Cl)cc1)OCCn1nnnc1C(c1ccccc1Cl)N1CCOCC1 (stereo not given) 28.2 µM [inhibitor, single point], COc1ccc([C@H]2CC(=O)C=C(c3ccc(CO)cc3)C2)cc1 89.1 µM [inhibitor, single point], COC(=O)C1=C(C)NC2=C(C(=O)CCC2)C1c1ccc(-c2ccsc2C(=O)OC)o1 (stereo not given) 89.1 µM [inhibitor, partial curve, poor fit], ON=C1c2cc(OCCN3CCCCC3)ccc2-c2ccc(OCCN3CCCCC3)cc21 15.8 µM [inhibitor, partial curve], N#CC1=C(S)N(c2ccc(F)cc2)C2(CCCCC2)NC1=O 20 µM [inhibitor, full curve, poor fit], O=C(/C=C/C=C/c1ccccc1)c1ccco1 100 µM [inhibitor, single point]

Max response, negative = inhibition, inactive:
COc1ccccc1N1C(=O)CC(Sc2n[nH]c(-c3cccc(C)c3)n2)C1=O (stereo not given) -11.8%, O=C1NCCOC(=O)[C@@H](Cc2ccc(F)cc2)C/C=C\C[C@@H]1CC(=O)N(CCO)Cc1ccccc1 10%, Cc1cccc(C(=O)NCC(=O)OCc2cc(=O)n3nc(C)sc3n2)c1 14.1%, CCOC(=O)Cc1ccc(NC(=O)c2ccccc2Br)cc1 6.51%, CC1CCCC(NC(=O)CCC(=O)c2ccc(F)cc2)C1C (stereo not given) -18.4%, Cc1nn(-c2ccc(N3CCCC3)nn2)c(C)c1CCC(=O)NCc1ccc(F)cc1 8.04%, COC(=O)c1cc2n3ccccc3c(C)c(-c3ccccc3)c-2c1C(=O)OC -1.07%, COc1ccc(CN2CCC(C(=O)N(C)CCc3ccc(OC)c(OC)c3)CC2)c(OC)c1 2.59%, Cc1c(C)n(CC(O)CN2CCCCC2)c2ccccc12 (stereo not given) -9.35%, Cn1c(SCc2ccccc2)nccc1=O -6.57%, C/C(=N\Nc1nc(-c2ccccc2O)nc2ccccc12)c1ccccc1 -1.01%, CC/C=C\C/C=C\C/C=C\C/C=C\C/C=C\CCCC(=O)O -8.68% and -28.6%, COc1ccc(C(CNC(=O)c2ccc(NS(=O)(=O)c3ccc4c(c3)OCCO4)cc2)N(C)C)cc1 (stereo not given) -8.35%, CNc1ccccc1C(C)(C)c1cc(-c2cccc(OC)c2)no1 19.7%, CC(C)CNC(=O)N1c2ccccc2Sc2ccccc21 6.49%
